The values that follow come from patent publication US12195506B2, “Immunotherapy with A*01 restricted peptides and combination of peptides against cancers and related methods” (Immatics Biotechnologies GmbH, priority 2018, dated 2025).

The subject of one data set is source genes (mRNA). The data set is described as follows: Expression profiling of genes encoding the peptides (RNAseq, tumor versus normal tissues). The arrangement: species or system human. The note with it: source gene of the peptide; for Gene Expression in tumor samples: Highly over-expressed (++): value = tumor type in which the gene is highly over-expressed compared to a panel of normal tissues; for Gene Expression in tumor samples: over-expressed (+): value = tumor type in which the gene is over-expressed compared to a panel of normal tissues.

Data set [1] deals with HLA molecules of primary tumors and normal tissue samples. The data set is described as follows: Identification and relative quantitation of HLA ligands by LC-MS (peptide presentation on tumor versus normal tissue). The arrangement: species or system human. The settings on record: cancer entities on which the peptide was found presented (HLA ligands, LC-MS); abbreviations as in title of Table 8.

For part of these data: Expression grades refer to the transcript from which the peptide derives; gene names, where given, were looked up from the sequence.

Consider “187: peptide found in PTPRZ1 (gene looked up) (TQKSVQVLAY; listed as Homo sapiens) [compound 187]”, for which, in the data set on source genes (mRNA), the “Gene Expression in tumor samples: Highly over-expressed (++)” value is “GBM”. Besides, the “Peptide Presentation on cancer entities” value in data set [1] is recorded as “GBM”.
As for “192: peptide found in SLC7A11 (gene looked up) (LAFYYGMY; listed as Homo sapiens) [compound 192]”, in the data set on source genes (mRNA), the “Gene Expression in tumor samples: Highly over-expressed (++)” value was “NSCLCsquam” and the “Gene Expression in tumor samples: over-expressed (+)” value (shortened to “Gene Expression … over-expressed (+)”) is “GBM, HNSCC, NSCLCadeno, OSCAR”. In addition, in data set [1], the “Peptide Presentation on cancer entities” value is “GC, MEL, NHL, NSCLCsquam, OC, PRCA, RCC, UEC”.
For “194: peptide found in ROS1 (gene looked up) (CYTADNEMGY; listed as Homo sapiens) [compound 194]”, in the data set on source genes (mRNA), the “Gene Expression in tumor samples: Highly over-expressed (++)” value is reported as “NSCLCadeno” and the “Gene Expression … over-expressed (+)” value was “NSCLCother, NSCLCsquam”. The “Peptide Presentation on cancer entities” value in data set [1] is reported as “HCC”.
Take “195: peptide found in ROS1 (gene looked up) (YTADNEMGYY; listed as Homo sapiens) [compound 195]”: in the data set on source genes (mRNA), the “Gene Expression in tumor samples: Highly over-expressed (++)” value is given as “NSCLCadeno” and the “Gene Expression … over-expressed (+)” value was “NSCLCother, NSCLCsquam”. Moreover, the “Peptide Presentation on cancer entities” value in data set [1] is recorded as “NSCLCadeno, NSCLCother”.
For the substance “197: peptide found in PDE11A (gene looked up) (NDEIDKLTGY; listed as Homo sapiens) [compound 197]”, in the data set on source genes (mRNA), the “Gene Expression in tumor samples: Highly over-expressed (++)” value is reported as “PRCA”. Also, in data set [1], the “Peptide Presentation on cancer entities” value is on record as “MEL”.
With “198: peptide found in PTPRZ1 (gene looked up) (KLTDYINANY; listed as Homo sapiens) [compound 198]”, the “Gene Expression in tumor samples: Highly over-expressed (++)” value with source genes (mRNA) is given as “GBM”. For the same substance, the “Peptide Presentation on cancer entities” value in data set [1] is given as “GBM”.
Consider “199: peptide found in UGT1A3 (gene looked up) (LCAAVLAKY; listed as Homo sapiens) [compound 199]”, for which, in the data set with source genes (mRNA), the “Gene Expression in tumor samples: Highly over-expressed (++)” value was “HCC”. Moreover, the “Peptide Presentation on cancer entities” value in data set [1] was “MEL”.
For “200: peptide found in FERMT1 (gene looked up) (SLPEFGLTY; listed as Homo sapiens) [compound 200]”, the “Gene Expression in tumor samples: Highly over-expressed (++)” value in the data set with source genes (mRNA) is “CRC”. Besides, the “Peptide Presentation on cancer entities” value in data set [1] is “GBM, RCC”.
In the same order, the values of “201: peptide found in FERMT1 (gene looked up) (SLPEFGLTYY; listed as Homo sapiens) [compound 201]” are “CRC” and “OSCAR”.
In the same order, the values of “202: peptide found in GPR143 (gene looked up) (QTDINGGSLK; listed as Homo sapiens) [compound 202]” are “MEL” and “MEL”.
Take “204: peptide found in BTLA (gene looked up) (NVKEAPTEY; listed as Homo sapiens) [compound 204]”: in the data set with source genes (mRNA), the “Gene Expression in tumor samples: Highly over-expressed (++)” value is on record as “CLL” and the “Gene Expression … over-expressed (+)” value is reported as “NHL”. The “Peptide Presentation on cancer entities” value in data set [1] is “NSCLCother”.
The like results for “205: peptide found in BTLA (gene looked up) (RMQEGSEVY; listed as Homo sapiens) [compound 205]” were, in that order, “CLL”, “NHL” and “MEL”.
Take “206: peptide found in ABCC4 (gene looked up) (RVFVAVTLY; listed as Homo sapiens) [compound 206]”: in the data set with source genes (mRNA), the “Gene Expression in tumor samples: Highly over-expressed (++)” value is listed as “PRCA”. Also, the “Peptide Presentation on cancer entities” value in data set [1] is “OC, PRCA”.
The like results for “208: peptide found in IGF1R (gene looked up) (LLISKAEDY; listed as Homo sapiens) [compound 208]” were, in that order, “BRCA” and “MEL”.
For “216: peptide found in HCAR1 (gene looked up) (NSMLDPLVY; listed as Homo sapiens) [compound 216]”, in the data set on source genes (mRNA), the “Gene Expression in tumor samples: Highly over-expressed (++)” value was “BRCA” and the “Gene Expression … over-expressed (+)” value is reported as “UBC”. Also, in data set [1], the “Peptide Presentation on cancer entities” value was “BRCA, HNSCC, NSCLCsquam, UBC”.
“218: peptide found in ROS1 (gene looked up) (FTAQLQLY; listed as Homo sapiens) [compound 218]”: in the data set on source genes (mRNA), the “Gene Expression in tumor samples: Highly over-expressed (++)” value is given as “NSCLCadeno” and the “Gene Expression … over-expressed (+)” value was “NSCLCother, NSCLCsquam”. For the same substance, in data set [1], the “Peptide Presentation on cancer entities” value is “GBC”.
On to “229: peptide found in ABCB11 (gene looked up) (MTDVFIDY; listed as Homo sapiens) [compound 229]”, for which the “Gene Expression … over-expressed (+)” value in the data set on source genes (mRNA) is “HCC”. In data set [1], the “Peptide Presentation on cancer entities” value is reported as “NSCLCsquam”.
As for “232: peptide found in CXCR3 (gene looked up) (RYLNIVHATQLY; listed as Homo sapiens) [compound 232]”, the “Gene Expression … over-expressed (+)” value in the data set with source genes (mRNA) is recorded as “CLL”. In addition, the “Peptide Presentation on cancer entities” value in data set [1] is recorded as “CLL”.
In the case of “248: peptide found in CDK6 (gene looked up) (VTDIDELGK; listed as Homo sapiens) [compound 248]”, the “Gene Expression … over-expressed (+)” value in the data set on source genes (mRNA) is “AML”. Also, the “Peptide Presentation on cancer entities” value in data set [1] is recorded as “GBM”.
Regarding “252: peptide found in ADCY8 (gene looked up) (DTTSHTYLQY; listed as Homo sapiens) [compound 252]”, the “Gene Expression … over-expressed (+)” value with source genes (mRNA) is on record as “GBM”. Moreover, the “Peptide Presentation on cancer entities” value in data set [1] is reported as “OSCAR”.
On to “256: peptide found in MET (gene looked up) (HAFESNNFIY; listed as Homo sapiens) [compound 256]”, for which, in the data set on source genes (mRNA), the “Gene Expression … over-expressed (+)” value is “GBC and NSCLCadeno”. Further, the “Peptide Presentation on cancer entities” value in data set [1] is given as “GBC”.
In the case of “257: peptide found in MET (gene looked up) (KSEMNVNMKY; listed as Homo sapiens) [compound 257]”, the “Gene Expression … over-expressed (+)” value in the data set with source genes (mRNA) was “GBC and NSCLCadeno”. Besides, the “Peptide Presentation on cancer entities” value in data set [1] was “BRCA, GBC, NSCLCsquam, PRCA, UEC”.
In the case of “266: peptide found in TTPA (gene looked up) (LTDSFLLRF; listed as Homo sapiens) [compound 266]”, the “Gene Expression … over-expressed (+)” value in the data set on source genes (mRNA) is listed as “HCC”. Moreover, the “Peptide Presentation on cancer entities” value in data set [1] is “HCC”.
“268: peptide found in ABCC4 (gene looked up) (AILHHLYFY; listed as Homo sapiens) [compound 268]”: in the data set with source genes (mRNA), the “Gene Expression … over-expressed (+)” value was “PRCA”. Further, the “Peptide Presentation on cancer entities” value in data set [1] is listed as “BRCA”.
In the case of “280: peptide found in MET (gene looked up) (TTEMVSNESVDY; listed as Homo sapiens) [compound 280]”, the “Gene Expression … over-expressed (+)” value in the data set on source genes (mRNA) is “GBC and RCC”. In data set [1], the “Peptide Presentation on cancer entities” value is “GBC”.
